From PMC12593631 come the findings set out here.

Chains of the proteins cited; added tags and fusions are not shown.
UniProt P11309: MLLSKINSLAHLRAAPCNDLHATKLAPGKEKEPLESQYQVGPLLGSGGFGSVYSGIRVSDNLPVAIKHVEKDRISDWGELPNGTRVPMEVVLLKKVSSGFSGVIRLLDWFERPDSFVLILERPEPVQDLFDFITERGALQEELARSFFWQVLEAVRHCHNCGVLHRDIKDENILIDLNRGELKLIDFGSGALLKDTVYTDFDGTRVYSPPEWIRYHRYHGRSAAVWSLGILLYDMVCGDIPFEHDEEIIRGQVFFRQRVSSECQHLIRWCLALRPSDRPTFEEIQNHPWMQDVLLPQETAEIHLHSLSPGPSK
UniProt P05412: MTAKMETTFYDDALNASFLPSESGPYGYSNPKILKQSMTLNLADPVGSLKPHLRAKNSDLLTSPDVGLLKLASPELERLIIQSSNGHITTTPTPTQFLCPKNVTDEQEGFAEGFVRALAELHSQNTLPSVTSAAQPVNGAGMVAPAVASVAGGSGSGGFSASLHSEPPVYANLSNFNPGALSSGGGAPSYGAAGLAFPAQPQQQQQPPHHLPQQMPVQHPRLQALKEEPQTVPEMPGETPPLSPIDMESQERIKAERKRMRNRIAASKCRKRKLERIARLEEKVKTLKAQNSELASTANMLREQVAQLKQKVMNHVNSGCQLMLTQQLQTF

In the assay the target is T1, Basic leucine zipper ATF-like transcription factor (BATF) (human (endogenous in HGC-27 and KATO III)) (UniProt Q16520).
T1 sequence: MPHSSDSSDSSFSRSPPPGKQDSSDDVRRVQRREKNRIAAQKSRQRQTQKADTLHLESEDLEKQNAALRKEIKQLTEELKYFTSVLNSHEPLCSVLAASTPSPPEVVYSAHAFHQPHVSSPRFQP
Put plainly: co-IP; cell lysate (IP lysis buffer, sonicated) incubated overnight at 4 °C with anti-BATF antibody or nonspecific IgG, protein A, four washes; immunoblot with anti-PIM1 or anti-JUN.

No constants are given. Whether binding was seen depends on the method and setting. Binding seen in cells or lysates may run through a third protein. Some entries that bind do so weakly or less than the wild type.

Take “proto-oncogene serine/threonine-protein kinase 1 (PIM1) (from UniProt P11309 1-313) (enzyme)”: the binding entry is “binds”.

On to “Jun proto-oncogene, AP-1 transcription factor subunit (JUN) (from UniProt P05412 1-331)”, for which the binding entry is reported as “binds”.
